From paper PMC10647173
Results are given in words; binding and its absence hold for the method and conditions named. Binding seen in cells or lysates may run through a third protein. Some binding calls cover weakened binding; strength is not graded here.

Chains of the proteins cited; added tags and fusions are not shown.
UniProt Q02085: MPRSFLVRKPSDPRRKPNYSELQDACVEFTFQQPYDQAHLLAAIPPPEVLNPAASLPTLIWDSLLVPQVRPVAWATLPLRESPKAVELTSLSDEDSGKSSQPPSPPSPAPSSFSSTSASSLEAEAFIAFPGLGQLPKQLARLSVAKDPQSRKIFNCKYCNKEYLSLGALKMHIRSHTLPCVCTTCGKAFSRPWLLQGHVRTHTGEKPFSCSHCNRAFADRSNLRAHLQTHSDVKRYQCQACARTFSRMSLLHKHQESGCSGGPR

Biological target: SNAIL1 (in the co-precipitation with KHSRP) (UniProt Q02085)
Assay: co-IP; co-precipitation told only in the discussion; no figure, cells and antibodies not stated

B1: KHSRP (protein, UniProt Q3U0V1 1-748)
chain: MSDYNTGGPPPGPPPPAGGGGGAAGAGGGPPPGPPGAGDRGGGGPGGGGPGGGGASGGPSQPPGGGGPGIRKDAFADAVQRARQIAAKIGGDAATTVNNNTPDFGFGGQKRQLEDGDQPDSKKLASQGDSIGSQLGPIHPPPRTSMTEEYRVPDGMVGLIIGRGGEQINKIQQDSGCKVQISPDSGGLPERSVSLTGAPESVQKAKMMLDDIVSRGRGGPPGQFHDNANGGQNGTVQEIMIPAGKAGLVIGKGGETIKQLQERAGVKMILIQDGSQNTNVDKPLRIIGDPYKVQQACEMVMDILRERDQGGFGDRNEYGSRVGGGIDVPVPRHSVGVVIGRSGEMIKKIQNDAGVRIQFKQDDGTGPEKIAHIMGPPDRCEHAARIINDLLQSLRSGPPGPPGAPGMPPGGRGRGRGQGNWGPPGGEMTFSIPTHKCGLVIGRGGENVKAINQQTGAFVEISRQLPPNGDPNFKLFVIRGSPQQIDHAKQLIEEKIEGPLCPVGPGPGGPGPAGPMGPFNPGPFNQGPPGAPPHAGGPPPHQYPPQGWGNTYPQWQPPAPHDPNKAAAAATDPNAAWAAYYSHYYQQPPGPVPGPAPAPAAPPAQGEPPQPPPTGQSDYTKAWEEYYKKIGQQPQQPGAPPQQDYTKAWEEYYKKQAQVATGGGPGAPPGSQPDYSAAWAEYYRQQAAYYGQTPGPGGPQPPPTQQGQQQASGNCHPPPPPFSFQPPATVHPALVGSAGNPFPCGVCP
binding: binds
